From PubChem BioAssay AID1347076 (National Center for Advancing Translational Sciences (NCATS), 2019)
The whole screen tested about 400,000 compounds, of which about 13,000 (3.2%) were called active. Inconclusive results, whose numbers are uncertain, are shown with a selection of clear calls. Calls follow the shape of the dose curve; as a rule, active = well fitted cell-killing curve with a large enough effect; inconclusive = small, poorly fitted or top-dose-only effect, or effect the other way; inactive = flat fitted curve, though single readings scatter. A potency beside an inconclusive call is a rough fit, not a confirmed value.
Potency is read from the fitted curve at half-maximal effect.

Assay: qHTS assay for MDR1-selective chemotherapeutics: Primary screen using the drug-selected MDR subline cells KB-V1; also: nearly all actives have a fitted effect of over 60% in size
Details: KB-V1 MDR cells viability, CellTiter-Glo, 72 h; series mostly up to 46.1 µM
Procedure, shortened: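 Compound-treated KB-V1 multidrug-resistant cells, 72 h, 37 degrees C; viability by CellTiter-Glo. Fitted qHTS curves give the values.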
For `O=C(CSc1nnc(CNc2ccc(F)cc2)n1-c1ccccc1)N1CCOCC1`, the Potency was “inactive”. In the case of `NC(=O)SCC(=O)Nc1ccccc1C(=O)O`, the Potency is reported as inconclusive: 3.66 µM [rising, full curve, poor fit]. With `Cc1ccc(CN2C(=O)CSc3ccc(C(=O)NCCN4CCOCC4)cc32)cc1` the Potency was inconclusive: 6.51 µM [cytotoxic, partial curve]. In the case of `O=C(Cc1c(F)cccc1Cl)NNC(=O)c1ccccc1Cl`, the Potency is reported as “inactive”. In the case of `CCOC(=O)CNC(=O)N1CCC(CCC(=O)N(C)Cc2ccccc2)CC1`, the Potency is reported as inconclusive: 16.4 µM [rising, single point]. In the case of `Cn1c(NCc2ccc3occc3c2)nc2cc(-c3cccc(C(F)(F)F)c3)sc2c1=O`, the Potency is reported as inconclusive: 10.3 µM [cytotoxic, partial curve, poor fit]. With `COc1ccc(C2C(C#N)=C(SC)NC3=C2C(=O)CC(C)(C)C3)cc1` (stereo not given) the Potency was inconclusive: 10.3 µM [cytotoxic, partial curve]. For `CCOC(=O)c1c(N)c2cc([N+](=O)[O-])ccc2n1C`, the Potency was inconclusive: 2.59 µM [cytotoxic, full curve, poor fit]. For `Cc1nc2ccccc2c2c1C(=O)N(C1CCCCCCC1)C2=O`, the Potency was inconclusive: 6.51 µM [cytotoxic, partial curve]. With `CCC(CC)c1nnc(NC(=O)CSCc2c(C)noc2C)s1` the Potency was inconclusive: 20.6 µM [cytotoxic, single point]. With `Cc1ccccc1-c1ccc(/C=C2/SC(N3CCOCC3)=NC2=O)o1` the Potency was inconclusive: 32.6 µM [cytotoxic, single point]. With `COc1ccccc1NC(=O)CCC(=O)Nc1cc(OC)c(NC(=O)c2cccs2)cc1OC` the Potency was inconclusive: 9.2 µM [cytotoxic, partial curve, poor fit]. With `COc1ccccc1C(=O)NCC(c1cccnc1)N1CCc2ccccc2C1` (stereo not given) the Potency was inconclusive: 2.59 µM [cytotoxic, full curve]. With `COc1ccc(N2C(=O)CC(Sc3nc4ccccc4s3)C2=O)cc1` (stereo not given) the Potency was “inactive”. For `Cc1cccc(N2CCN(C(=O)CN3C(=O)CSc4c3c(C)nn4-c3ccccc3)CC2)c1C`, the Potency was “inactive”. In the case of `CCCOC(=O)c1c(NC(=O)C(C)Sc2nc(-c3ccccc3)cc(C(F)(F)F)n2)sc(C(=O)N(C)C)c1C` (stereo not given), the Potency is reported as inconclusive: 16.4 µM [cytotoxic, partial curve, poor fit]. With `COc1ccc(S(=O)(=O)N2CCC(C(=O)N3CCCCC3)CC2)cc1Cl` the Potency was inconclusive: 0.517 µM [cytotoxic, full curve, poor fit]. In the case of `O=C(NCCCc1ccccc1)Nc1cccc(Cl)c1`, the Potency is reported as inconclusive: 25.9 µM [cytotoxic, single point]. With `COCCCn1c(C)cc(C(=O)CN2c3cccc4cccc(c34)S2(=O)=O)c1C` the Potency was inconclusive: 9.2 µM [cytotoxic, partial curve, poor fit]. In the case of `CN(CC(=O)NC(=O)NCc1ccccc1)CC(=O)Nc1ccc(Cl)c(C(F)(F)F)c1`, the Potency is reported as inconclusive: 32.6 µM [cytotoxic, single point]. With `O=C(OCc1nc2ccc(Cl)cc2n1CCO)c1ccccc1` the Potency was “inactive”. For `COc1cc(CNCc2ccncc2)ccc1OCC(N)=O`, the Potency was inconclusive: 29.1 µM [rising, single point]. For `Nn1cnnc1N/N=C/c1cc(Br)cc(Br)c1O`, the Potency was active: 2.31 µM. For `O=C(NC(=S)Nc1ccc(N2CCOCC2)cc1)c1cncc(Br)c1`, the Potency was inconclusive: 25.9 µM [rising, single point]. In the case of `CC(=O)c1c(C)oc2c1cc(NS(=O)(=O)c1ccc(Br)cc1)c1ccccc12`, the Potency is reported as inconclusive: 3.66 µM [cytotoxic, full curve]. For `O=C1CCCC2=C1C(c1ccccc1)C1C(=O)c3ccccc3C1=N2` (stereo not given), the Potency was inconclusive: 29.1 µM [cytotoxic, single point]. In the case of `O=C(CSc1nc2ccc(Cl)cc2[nH]1)c1ccc2c(c1)OCO2`, the Potency is reported as “inactive”. In the case of `CC(C)n1cnc2cc(NCc3nc4ccccc4n3C)ccc21`, the Potency is reported as inconclusive: 8.2 µM [cytotoxic, partial curve, poor fit]. In the case of `CC(=O)c1c(C)[nH]c(C(=O)Nc2cc(C)cc(C)c2)c1C`, the Potency is reported as inconclusive: 23.1 µM [cytotoxic, single point]. With `CCOC(=O)C(=CNc1cc(C)nn1-c1ccc(C)cc1)C(=O)OCC` the Potency was inconclusive: 10.3 µM [cytotoxic, partial curve]. With `c1ccc(COc2ccc(OCCCNC3CCCC3)cc2)cc1` the Potency was inconclusive: 29.1 µM [cytotoxic, single point]. For `COC(=O)c1ccc(NC(=O)CCn2cnnn2)cc1`, the Potency was “inactive”. In the case of `CCOc1ccccc1CNCc1cccn1-c1nnc(N2CCN(c3ccccc3)CC2)s1`, the Potency is reported as inconclusive: 29.1 µM [cytotoxic, single point]. In the case of `O=C(NNC(=S)NC(=O)c1ccccc1Cl)c1cccc([N+](=O)[O-])c1`, the Potency is reported as “inactive”. For `FC(F)(F)c1cc(C(F)(F)F)c2ccc(N3CCN(c4ncccn4)CC3)nc2n1`, the Potency was inconclusive: 18.4 µM [cytotoxic, single point]. For `O=C(NCCO)c1cc2ccccc2cc1O`, the Potency was inconclusive: 29.1 µM [cytotoxic, single point]. For `CC1CCC(C(=O)NC(C(=O)N2CCN(c3ccccn3)CC2)C(C)C)CC1` (stereo not given), the Potency was active: 3.26 µM. In the case of `Cc1ccc(NC(=O)CNC(=O)c2cccc(Cl)c2)nc1`, the Potency is reported as inconclusive: 29.1 µM [cytotoxic, single point]. With `CSc1cccc(N2C(=O)C3CCCN3C2=S)c1` (stereo not given) the Potency was “inactive”. In the case of `Cc1ccc(Oc2c(CO)c(-c3ccccc3)nn2C)cc1`, the Potency is reported as inconclusive: 25.9 µM [cytotoxic, partial curve, poor fit]. For `COc1ccc(NC(=O)COC(=O)C2CC(=O)N(c3ccc(C)cc3)C2)cc1` (stereo not given), the Potency was inconclusive: 16.4 µM [rising, single point]. In the case of `CCc1ccccc1NNC(=O)c1cc(C)on1`, the Potency is reported as “inactive”. With `CC1CC(C)CN(S(=O)(=O)c2ccc(NC(=O)c3ccc(=O)[nH]c3)cc2)C1` (stereo not given) the Potency was “inactive”. In the case of `COc1ccc(Cl)cc1NS(=O)(=O)c1cccc(C(=O)NC2CC2)c1`, the Potency is reported as active: 18.4 µM. For `COc1ccc2oc(C(=O)OCC(=O)NC(C)c3ccccc3)c(C)c2c1` (stereo not given), the Potency was “inactive”. For `Cc1cc(C)c(S(=O)(=O)Nc2ccc3c4c(cccc24)CC3)c(C)c1`, the Potency was active: 1.3 µM. With `CC1CCC(=NNC(=O)c2ccccc2-n2cccc2)CC1` (stereo not given) the Potency was inconclusive: 1.03 µM [cytotoxic, full curve, poor fit]. In the case of `Cc1ccc(C)c(NC(=S)NCc2ccc3[nH]c4c(c3c2)CCCC4)c1`, the Potency is reported as inconclusive: 29.1 µM [cytotoxic, single point]. With `COc1ccccc1/C=C/CN1CCC(CO)(Cc2ccccc2)CC1` the Potency was inconclusive: 29.1 µM [cytotoxic, single point]. With `COC(=O)[C@H](Cc1ccccc1)NC(=O)Cn1cnc(C(=O)Nc2ccc(C)c(C)c2)n1` the Potency was “inactive”. With `NS(=O)(=O)c1cccc(NC(=O)CSc2n[nH]c(-c3cccs3)n2)c1` the Potency was inconclusive: 29.1 µM [rising, single point]. For `CC(C)C[C@@H](CN1CCC[C@@H]1CN1C(=S)NC[C@@H]1Cc1ccc(O)cc1)N1C[C@H](Cc2ccccc2)N(CCc2ccccc2)C1=S`, the Potency was “inactive”. With `CCOc1cc([N+](=O)[O-])cc(/C=C2/NC(=O)N(Cc3ccccc3F)C2=O)c1O` the Potency was inconclusive: 29.1 µM [rising, single point]. In the case of `COC(=O)c1ccccc1NC(=O)C1CCN(C(=O)Cc2ccccc2)CC1`, the Potency is reported as inconclusive: 23.1 µM [cytotoxic, single point]. In the case of `COc1cccc(CNC(=O)COc2cc(=O)n(C)c3ccccc23)c1`, the Potency is reported as “inactive”. For `COc1ccc(-n2nc(C(=O)NCC(=O)NCCN(C)C)c3ccccc3c2=O)c(OC)c1`, the Potency was inconclusive: 16.4 µM [rising, partial curve, poor fit]. In the case of `CCn1cc(CN2CCCC(C(=O)Nc3cccc(-c4cc5ccccc5[nH]4)c3)C2)cn1` (stereo not given), the Potency is reported as inconclusive: 6.51 µM [rising, partial curve]. In the case of `C=CCc1cccc(/C=N/NC(=O)C(=O)Nc2ccc(C)cc2)c1O`, the Potency is reported as “inactive”. For `Cc1cc(C)cc(-n2c(C)cc(C(=S)N3CCOCC3)c2C)c1`, the Potency was “inactive”. For `O=C(CCSc1ccc(Cl)cc1)NC1CCCCC1`, the Potency was inconclusive: 23.1 µM [cytotoxic, partial curve, poor fit]. In the case of `Clc1ccc(OCc2nn3c(-c4ccncc4)nnc3s2)cc1`, the Potency is reported as active: 10.3 µM. With `COCCNC(=S)N1CCC2CC1c1c(Cl)cccc12` (stereo not given) the Potency was “inactive”. With `O=C(CCS(=O)(=O)c1cccs1)Nc1ccc(C(=O)NCc2cccs2)cc1` the Potency was inconclusive: 22.4 µM [cytotoxic, single point]. For `Cc1ccccc1CCN(C(=O)c1csnn1)C(C(=O)NC1CCCC1)c1ccco1` (stereo not given), the Potency was inconclusive: 2.06 µM [cytotoxic, full curve]. For `CCC(C)c1ccc(OCC(=O)NNC(=O)C2CCCCC2)cc1` (stereo not given), the Potency was “inactive”. For `CCn1c(C)c(C(C)=O)c(N2CCN(c3ccc(F)cc3)CC2)nc1=S`, the Potency was “inactive”. For `N#Cc1c(-c2ccc(Cl)cc2)c(-c2ccc(Cl)cc2)nn(CCOC(=O)CCC(=O)O)c1=O`, the Potency was active: 7.31 µM. With `O=C(Nc1ccc(Br)cc1Br)C1CC(=O)N(Cc2ccccc2)C1` (stereo not given) the Potency was inconclusive: 16.4 µM [cytotoxic, partial curve]. In the case of `COc1ccc(CNc2ncnc3sccc23)cc1`, the Potency is reported as inconclusive: 6.51 µM [cytotoxic, partial curve]. In the case of `COc1ccc(C(=O)C(=O)N2CCN(c3ccccc3F)CC2)cc1`, the Potency is reported as inconclusive: 16.4 µM [cytotoxic, partial curve].
